Measurements reported in the supplement of paper PMC4807443.
Structures can show the parent of a compound that is named as a salt. The list shows a part of the results. The numbers are fractions of the control, whatever unit the source prints. Most entries show no effect beyond the scatter of the controls.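 A lentiviral reporter stably expressed in MIN6 mouse insulinoma beta cells uses Pdx1 and Ins1 promoters to drive separate nucleus-targeted fluorescent proteins; automated imaging with Hoechst nuclear stain counted cells. Possible hits were drugs shifting Ins1 promoter signal more than two median absolute deviations from DMSO controls, with Pdx1 activity roughly normal.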

tested on: MIN6; experiment: % Pdx1+ Ins1+ (double-positive, mature) cells relative to DMSO control (fold of DMSO control); higher = more mature Ins1 promoter-active cells; details: 8.5 µM; 48 h; glucose 5 mM

| Structure (SMILES) | % Pdx1+ Ins1+ |
| --- | --- |
| CC[C@H](C)[C@H]1O[C@]2(C=C[C@@H]1C)C[C@@H]1C[C@@H](C/C=C(\C)[C@@H](O[C@H]3C[C@H](OC)[C@@H](O[C@H]4C[C@H](OC)[C@@H](O)[C@H](C)O4)[C@H](C)O3)[C@@H](C)/C=C/C=C3\CO[C@@H]4[C@H](O)C(C)=C[C@@H](C(=O)O1)[C@]34O)O2.CO[C@H]1C[C@H](O[C@H]2[C@H](C)O[C@@H](O[C@@H]3/C(C)=C/C[C@@H]4C[C@@H](C[C@]5(C=C[C@H](C)[C@@H](C(C)C)O5)O4)OC(=O)[C@@H]4C=C(C)[C@@H](O)[C@H]5OC/C(=C\C=C\[C@@H]3C)[C@]54O)C[C@@H]2OC)O[C@@H](C)[C@@H]1O [Avermectin B1] | 0.571 |
| CN(C)Cc1c[nH]c2ccccc12 [Gramine] | 0.961 |
| C[N+]1(C)CCOC(O)(c2ccc(-c3ccc(C4(O)C[N+](C)(C)CCO4)cc3)cc2)C1 (configuration not stated) [Hemicholinium bromide] | 1.01 |
| O=C(O)CCCc1ccc(N(CCCl)CCCl)cc1 [Chlorambucil] | 0.927 |
| CCCN1C[C@H](CSC)C[C@@H]2c3cccc4[nH]cc(c34)C[C@H]21 [Pergolide mesylate] | 0.905 |
| CCCCc1ccc(C(=O)O)nc1 [Fusaric acid] | 0.857 |
| CC[C@@]1(O)C(=O)OCc2c1cc1n(c2=O)Cc2cc3ccccc3nc2-1 [Camptothecine (S,+)] | 0.328 |
| CCC(=O)O[C@@](Cc1ccccc1)(c1ccccc1)[C@@H](C)CN(C)C [Levopropoxyphene napsylate] | 0.971 |
| CN1C[C@H](C(=O)N[C@]2(C)O[C@@]3(O)[C@@H]4CCCN4C(=O)[C@H](Cc4ccccc4)N3C2=O)C[C@@H]2c3cccc4[nH]cc(c34)C[C@H]21 [Dihydroergotamine tartrate] | 0.969 |
| C[N+]1(C)[C@@H]2CC[C@H]1C[C@@H](OC(=O)C(CO)c1ccccc1)C2 (some centres not stated) [Methylatropine nitrate] | 1.01 |
| C[N+](C)(C)CCCCCCCCCC[N+](C)(C)C [Decamethonium bromide] | 0.933 |
| c1ccc2nc(N3CCNCC3)ccc2c1 [Quipazine dimaleate salt] | 0.881 |
| CCC1(CC)C(=O)C=CNC1=O [Pyrithyldione] | 0.887 |
| C[C@@H]1NCCc2cc(O)c(O)cc21 [Salsolinol hydrobromide] | 0.914 |
| COc1ccc(Cc2nccc3cc(OC)c(OC)cc23)cc1OC [Papaverine hydrochloride] | 0.921 |
| COC(=O)C1=CCCN(C)C1 [Arecoline hydrobromide] | 0.776 |
| CC(C)(C)NCC(O)c1cc(Cl)c(N)c(Cl)c1 (configuration not stated) [Clenbuterol hydrochloride] | 0.908 |

Three entries from above, sorted by SMILES length, high to low.

| Structure (SMILES) | % Pdx1+ Ins1+ |
| --- | --- |
| CC[C@@]1(O)C(=O)OCc2c1cc1n(c2=O)Cc2cc3ccccc3nc2-1 [Camptothecine (S,+)] | 0.328 |
| C[C@@H]1NCCc2cc(O)c(O)cc21 [Salsolinol hydrobromide] | 0.914 |
| CCCCc1ccc(C(=O)O)nc1 [Fusaric acid] | 0.857 |
